From publication PMC7758049
These are yes or no findings as the source states them, for the method shown. In cells and extracts the contact can be indirect. A yes stands for co-enrichment or nearness to the bait. Other partners may have been found.

B1: Utp2 (endogenous) (protein, UniProt Q99207 1-810)
chain: MAGSQLKNLKAALKARGLTGQTNVKSKNKKNSKRQAKEYDREEKKKAIAEIREEFNPFEIKAARNKRRDGLPSKTADRIAVGKPGISKQIGEEQRKRAFEARKMMKNKRGGVIDKRFGERDKLLTEEEKMLERFTRERQSQSKRNANLFNLEDDEDDGDMFGDGLTHLGQSLSLEDELANDEEDFLASKRFNEDDAELQQPQRKKTKAEVMKEVIAKSKFYKQERQKAQGIMEDQIDNLDDNFEDVMSELMMTQPKKNPMEPKTDLDKEYDIKVKELQLDKRAAPSDRTKTEEEKNAEAEEKKRELEQQRLDRMNGMIELEEGEERGVEDLDDGFWENEEDYEDDNDGIADSDDDIKFEDQGRDEGFSQILKKKNISISCPRTHDALLDQVKKLDLDDHPKIVKNIIKAYQPKLAEGNKEKLGKFTAVLLRHIIFLSNQNYLKNVQSFKRTQNALISILKSLSEKYNRELSEECRDYINEMQARYKKNHFDALSNGDLVFFSIIGILFSTSDQYHLVITPALILMSQFLEQIKFNSLKRIAFGAVLVRIVSQYQRISKRYIPEVVYFFQKILLTFIVEKENQEKPLDFENIRLDSYELGLPLDVDFTKKRSTIIPLHTLSTMDTEAHPVDQCVSVLLNVMESLDATISTVWKSLPAFNEIILPIQQLLSAYTSKYSDFEKPRNILNKVEKLTKFTEHIPLALQNHKPVSIPTHAPKYEENFNPDKKSYDPDRTRSEINKMKAQLKKERKFTMKEIRKDAKFEARQRIEEKNKESSDYHAKMAHIVNTINTEEGAEKNKYERERKLRGGKK
B2: Noc4 (protein, UniProt Q06512 1-552)
chain: MVLLISEIKDIAKRLTAAGDRKQYNSIIKLINELVIPENVTQLEEDETEKNLRFLVMSLFQIFRKLFSRGDLTLPSSKKSTLEKEQFVNWCRKVYEAFKTKLLAIISDIPFETSLGLDSLDVYLQLAELESTHFASEKGAPFFPNKTFRKLIIALWSSNMGEIEDVKSSGASENLIIVEFTEKYYTKFADIQYYFQSEFNQLLEDPAYQDLLLKNVGKWLALVNHDKHCSSVDADLEIFVPNPPQAIENESKFKSNFEKNWLSLLNGQLSLQQYKSILLILHKRIIPHFHTPTKLMDFLTDSYNLQSSNKNAGVVPILALNGLFELMKRFNLEYPNFYMKLYQIINPDLMHVKYRARFFRLMDVFLSSTHLSAHLVASFIKKLARLTLESPPSAIVTVIPFIYNLIRKHPNCMIMLHNPAFISNPFQTPDQVANLKTLKENYVDPFDVHESDPELTHALDSSLWELASLMEHYHPNVATLAKIFAQPFKKLSYNMEDFLDWNYDSLLNAESSRKLKTLPTLEFEAFTNVFDNEDGDSEASSQGNVYLPGVAW
B3: Rrp12 (protein, UniProt Q12754 1-1228)
chain: MDQDKVAFLLELEDKLAKIRSQVNSKLENQKHIAIILTAVEENIAGQATNDVSKNIVNYIISFMSLLDQAVDPSTHEIKDIQLASSSTYLLDLIFHYSPKVLLRSKFSEILTKIAPCITAEKANAPLIRAAIGCLESLLIAQDAQAWNNTYDLNVTPKRGLQGILELSLDVRPKVRKRALDAVHAVLLNPPVAPTAEHVAAVFVADFCDKQLAGILNDLSNLSNKQLKAQKTKEDINASVMRSLRLITSVVSTGQWPSSQIEPLCDVLLGVTKSSEQYLVSASFECFESMFKTMAETTISSGLAENKYLRVLDTIFALKPSNVDTLLTKSWIAVVIKGMSTYATHQPLKALRKIPGVFHIMCTYLASETPEVYQAASQCLISILSESVKDDLLLYTPSVDEKVFKNVDEIISQIAKTFIDFLSIRYSHCSREILKILVAAFNKFRYRSNPHFLKSLKIVDTWRVNEEQFMDLRNEIELVIGASISAMGPEMILAEAPLNLDNPSSERPGRAWLLPLIRDYTKNANLATFQNELAPYIKSFQSKFDKVPEESIQLRVFQTIVDQIWSTLPRFCELPMDLRESFTDEFASELSSLLYSEVELRTTICHALKVLAESNVSYAEESSSHNVLLLQRFPISEAQKNIEYLSTKSTNLLAVLFNVYTQTTPNARSYILETIDQYLKITSKEDLEKTFNNVCGLLKNSMNEESSGNVNKEKKKPQLTATLLDLIICMITYLPVSSYSALFSMFSLTVNSADALIQKRAYRIITKLSELKSGSTAVAQFISDIENVMVDSASSVQTSAKAARLTAIKTIVELLPLDHLDFIVRTVAEVILSTKDVNEKSRETAFDTLICMGRKMNEPNGIIKLFQIPGYDPTTPDQSSSISEFFKIISAGLIGESQHMVSSSITGYACLVFEFKNELDSGILMDIYDTIELYLTSNSREIVKSAIGFTKVCVLGLPEELMRPKVPELLLKLLRWSHEHTGHFKAKVKHIIERLIRRFGYDYIEANFPEEDRRLLTNIRKMRNRNKRKDEEVTTGVSDVAATKGSRFMSAFDEAVYGSDEENDNGSDQEENVAGGKMKNGAKQFIVESGDNPLDLLDSQTLAHISSTRPKKFNKNQNRARFNDDAFNFDSEGKLVVKGQPKPSTNVDDPLSAVTSGINAYLEAVKSGPVRGQRNKLKFRKNGKDSDEFGDDDDGEKDSRLMRGRVNQGNKIGKHNKKGPKFKSRKKL
B4: Bfr2 (protein, UniProt Q06631 1-534)
chain: MEKSLADQISDIAIKPVNKDFDIEDEENASLFQHNEKNGESDLSDYGNSNTEETKKAHYLEVEKSKLRAEKGLELNDPKYTGVKGSRQALYEEVSENEDEEEEEEEEEEKEEDALSFRTDSEDEEVEIDEEESDADGGETEEAQQKRHALSKLIQQETKQAINKLSQSVQRDASKGYSILQQTKLFDNIIDLRIKLQKAVIAANKLPLTTESWEEAKMDDSEETKRLLKENEKLFNNLFNRLINFRIKFQLGDHITQNEEVAKHKLSKKRSLKELYQETNSLDSELKEYRTAVLNKWSTKVSSASGNAALSSNKFKAINLPADVQVENQLSDMSRLMKRTKLNRRNITPLYFQKDCANGRLPELISPVVKDSVDDNENSDDGLDIPKNYDPRRKDNNAIDITENPYVFDDEDFYRVLLNDLIDKKISNAHNSESAAITITSTNARSNNKLKKNIDTKASKGRKLNYSVQDPIANYEAPITSGYKWSDDQIDEFFAGLLGQRVNFNENEDEEQHARIENDEELEAVKNDDIQIFG
B5: Lcp5 (protein, UniProt P40079 1-357)
chain: MSELNALLKDINGSLTATSESLERLSGIYSNSATDEIPESNQLHEHLFYDAKKPAEKVSLLSLKNGSMLGYINSLLMLIGNRLDDECKDPSAMDARERSIQHRVVLERGVKPLEKKLAYQLDKLTRAYVKMEKEYKDAEKRALEKSTLVNHSGNDDSEDDESSEDEIAYRPNTSGIINTNKKSSAYRVEETAKQENGEENDDNETGVYKPPKITAVLPPQQTHFEDRFDAREHKDRSNKSRMQAMEEYIRESSDQPDWSASIGADIVNHGRGGIKSLRDTEKERRVTSFEEDNFTRLNITNKAEKRKQKQRERNARMNVIGGEDFGIFSSKRKLEDSTSRRGAKKTRSAWDRAQRRL
B6: Mrd1 (protein, UniProt Q06106 1-887)
chain: MSRIIVKGLPVYLTDDNLREHFTKRLRQKHSHQAVNGSGPDLITDVKILRDRNGESRRFGFIGYRNEEDAFDAVEYFNGSFINTSKIEVSMAKSFADPRVPQPMKEKRREALKRFREKEEKLLQEENRKKKKVDENKHSNIDDEIRKNKQLQEFMETMKPSSQVTSWEKVGIDKSIEDEKLKREEEDSSVQGNSLLAHALALKEENNKDEAPNLVIENESDDEYSALNRNRDEDQEDAGEEEKMISISNLKDTDIGLVNDDANSDEKENEKRRNLAQDEKVSDLDWFKQRRVRIKESEAETREKSSSYATEQNESLDTKKEEQPERAVPQKTDEELAIEKINQTGRLFLRNILYTSKEEDFRKLFSPFGELEEVHVALDTRTGQSKGFAYVLFKDSKNAVNAYVELDKQIFQGRLLHILPGEEKKSHRLDEFDLKNMPLKKQKELKRKAAASRQTFSWNSLYMNQDAVLGSVAAKLGLEKSQLIDAENSSSAVKQALAEAHVIGDVRKYFESKGVDLTKFSQLKSTNQRDDKVILVKNFPFGTTREELGEMFLPYGKLERLLMPPAGTIAIVQFRDTTSARAAFTKLSYKRFKDGIIYLERGPKDCFTKPAEADDLINNTSAKEEENPVEVKPSSNDLMEANKDVTEGSSNAHDEDVIDGPTVSIFIKNLNFSTTNQNLTDRFKVFTGFVVAQVKTKPDPKHQGKTLSMGFGFVEFRTKEQANAVIAAMDGTVIDGHKIQLKLSHRQASQSGNTKTKSNKKSGKIIVKNLPFEATRKDVFELFNSFGQLKSVRVPKKFDKSARGFAFVEFLLPKEAENAMDQLHGVHLLGRRLVMQYAEEDAVDAEEEIARMTKKVRKQVATNEMAALRNGGGRKKLDVDDEENEGF
B7: Slx9 (protein, UniProt P53251 1-210)
chain: MVAKKRNTLRSKVSARNSQNFGPDVANNGILDESYDIESDPRAFLHQPKETKKEKLLNRQNTFLSNLKGKSTLNDGIAANFDGISKSSIRRRKRKLREELKPRMQDLLTSLEQEKDLRGIIENSSKDMNNDDDIDMDSKIRFVDTKEMNLKKIEPGSVRIKKNQPNIRNQKGAKALAANETARFNQVLTNQDFQKNPFGALREVIKLQKQ
B8: Rio1 (protein, UniProt Q12196 1-484)
chain: MSLEDKFDSLSVSQGASDHINNQLLEKYSHKIKTDELSFSRAKTSKDKANRATVENVLDPRTMRFLKSMVTRGVIADLNGCLSTGKEANVYHAFAGTGKAPVIDEETGQYEVLETDGSRAEYAIKIYKTSILVFKDRERYVDGEFRFRNSRSQHNPRKMIKIWAEKEFRNLKRIYQSGVIPAPKPIEVKNNVLVMEFLSRGNGFASPKLKDYPYKNRDEIFHYYHTMVAYMRLLYQVCRLVHADLSEYNTIVHDDKLYMIDVSQSVEPEHPMSLDFLRMDIKNVNLYFEKMGISIFPERVIFQFVISETLEKFKGDYNNISALVAYIASNLPIKSTEQDEAEDEIFRSLHLVRSLGGLEERDFDRYTDGKFDLLKSLIAHDNERNFAASEQFEFDNADHECSSGTEEFSDDEEDGSSGSEEDDEEEGEYYDDDEPKVLKGKKHEDKDLKKLRKQEAKDAKREKRKTKVKKHIKKKLVKKTKSKK

Target: T1, Enp1-TAP (S. cerevisiae) (UniProt P38333)
T1 sequence: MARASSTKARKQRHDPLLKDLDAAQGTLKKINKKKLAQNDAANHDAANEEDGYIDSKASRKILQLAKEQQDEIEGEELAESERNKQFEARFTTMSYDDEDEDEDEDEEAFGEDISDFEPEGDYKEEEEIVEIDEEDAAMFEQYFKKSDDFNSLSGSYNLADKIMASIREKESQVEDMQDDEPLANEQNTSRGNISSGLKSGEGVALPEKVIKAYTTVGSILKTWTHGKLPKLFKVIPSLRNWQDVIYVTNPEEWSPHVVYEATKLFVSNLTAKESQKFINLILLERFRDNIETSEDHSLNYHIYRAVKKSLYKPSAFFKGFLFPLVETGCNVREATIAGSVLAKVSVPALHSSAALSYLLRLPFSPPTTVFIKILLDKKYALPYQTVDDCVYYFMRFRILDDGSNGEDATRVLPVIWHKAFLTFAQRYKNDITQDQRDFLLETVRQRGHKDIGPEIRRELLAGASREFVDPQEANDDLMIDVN
Assay: affinity purification with mass spectrometry; Enp1-TAP captured from yeast extract on rabbit IgG Dynabeads, TEV elution, pre-ribosomal particles pelleted through a sucrose cushion; excised gel bands and the whole sample by LC-MS/MS; cells with Bud23 (AJY2665) or depleted of Bud23-AID (AJY4395, 0.5 mM auxin, 2 hours); 50 mM Tris-HCl pH 7.6, 100 mM KCl, 5 mM MgCl2, 0.1% TritonX-100, 4°C

Row | Binder | binding
1 | B1 | binds
2 | B2 | binds
3 | B3 | binds
4 | B4 | binds
5 | B5 | binds
6 | B6 | binds
7 | B7 | binds
8 | B8 | binds
